Laboratory results reported in publication PMC3511376.
Results are given in words; binding and its absence hold for the method and conditions named.

Target: HIV-1 envelope glycoprotein gp120 (YU2) (HIV-1 (YU2)) (UniProt P35961)
Test: condition: only with 1 mM EDTA in the running buffer (Langerin ECD at 500 nM); SPR; gp120YU2 functionalised surface; Langerin ECD injected at 500 nM with 1 mM EDTA in the running buffer in place of 4 mM Ca2+; both purified

## Langerin extracellular domain (ECD) (from UniProt Q9UJ71 65-328) (domain or fragment)
  binding: no binding
